In paper doi:10.1101/2021.04.04.438364:
No constants are given. Whether binding was seen depends on the method and setting. Binding seen in cells or lysates may run through a third protein. Some results given as binding are weak or reduced against the parent protein; the word gives no strength.

Protein sequences, listed by entry. Tags and fused reporters are not part of them.
UniProt P39687: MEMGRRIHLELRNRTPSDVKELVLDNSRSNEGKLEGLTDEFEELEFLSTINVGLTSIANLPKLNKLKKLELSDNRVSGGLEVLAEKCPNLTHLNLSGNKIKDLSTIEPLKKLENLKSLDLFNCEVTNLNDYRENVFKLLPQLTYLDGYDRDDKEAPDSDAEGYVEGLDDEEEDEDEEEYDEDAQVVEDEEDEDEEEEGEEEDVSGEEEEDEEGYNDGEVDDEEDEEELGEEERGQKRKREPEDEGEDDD
UniProt O15169: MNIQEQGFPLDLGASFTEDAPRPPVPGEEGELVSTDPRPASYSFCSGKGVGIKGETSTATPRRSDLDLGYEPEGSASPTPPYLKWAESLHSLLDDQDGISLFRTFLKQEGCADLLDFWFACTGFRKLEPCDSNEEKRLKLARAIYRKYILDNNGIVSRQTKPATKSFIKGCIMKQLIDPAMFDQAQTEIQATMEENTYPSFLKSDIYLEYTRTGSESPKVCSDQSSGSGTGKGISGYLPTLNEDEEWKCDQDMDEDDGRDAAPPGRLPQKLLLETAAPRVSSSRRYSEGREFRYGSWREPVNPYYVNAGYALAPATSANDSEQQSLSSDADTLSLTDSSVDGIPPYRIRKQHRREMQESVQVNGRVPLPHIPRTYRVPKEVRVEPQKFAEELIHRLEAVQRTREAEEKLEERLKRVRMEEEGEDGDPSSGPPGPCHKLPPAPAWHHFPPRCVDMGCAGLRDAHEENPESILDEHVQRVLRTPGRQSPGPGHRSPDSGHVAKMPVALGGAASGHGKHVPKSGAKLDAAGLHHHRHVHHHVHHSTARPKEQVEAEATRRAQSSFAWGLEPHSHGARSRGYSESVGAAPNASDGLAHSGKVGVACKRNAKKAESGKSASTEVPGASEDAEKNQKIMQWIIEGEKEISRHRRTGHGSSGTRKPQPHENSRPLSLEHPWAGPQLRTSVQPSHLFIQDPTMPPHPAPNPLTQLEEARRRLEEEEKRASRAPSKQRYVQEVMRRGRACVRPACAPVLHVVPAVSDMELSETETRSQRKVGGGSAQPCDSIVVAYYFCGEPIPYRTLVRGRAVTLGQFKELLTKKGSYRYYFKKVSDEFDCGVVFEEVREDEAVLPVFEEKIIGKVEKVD
UniProt P35222: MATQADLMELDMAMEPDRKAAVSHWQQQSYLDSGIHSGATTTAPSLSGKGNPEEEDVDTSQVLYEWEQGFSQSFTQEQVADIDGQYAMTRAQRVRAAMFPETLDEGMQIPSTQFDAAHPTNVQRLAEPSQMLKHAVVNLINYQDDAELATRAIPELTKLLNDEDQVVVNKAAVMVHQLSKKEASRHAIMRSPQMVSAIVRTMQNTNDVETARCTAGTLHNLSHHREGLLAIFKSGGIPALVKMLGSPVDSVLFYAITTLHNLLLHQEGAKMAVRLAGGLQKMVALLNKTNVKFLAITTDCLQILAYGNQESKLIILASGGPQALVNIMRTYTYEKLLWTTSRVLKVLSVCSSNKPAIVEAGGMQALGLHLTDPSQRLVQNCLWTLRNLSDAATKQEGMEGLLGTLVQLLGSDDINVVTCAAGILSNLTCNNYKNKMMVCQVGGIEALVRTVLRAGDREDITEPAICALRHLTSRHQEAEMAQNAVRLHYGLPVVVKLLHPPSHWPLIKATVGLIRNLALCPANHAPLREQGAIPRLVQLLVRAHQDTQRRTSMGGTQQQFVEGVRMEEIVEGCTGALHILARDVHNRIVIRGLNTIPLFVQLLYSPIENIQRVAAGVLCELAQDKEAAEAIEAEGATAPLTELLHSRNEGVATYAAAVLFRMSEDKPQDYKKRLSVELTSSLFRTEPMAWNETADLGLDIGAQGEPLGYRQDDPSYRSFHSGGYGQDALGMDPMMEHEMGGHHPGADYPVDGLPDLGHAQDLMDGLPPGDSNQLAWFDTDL

Molecular target: acidic leucine rich nuclear phosphoprotein-32A (ANP32A) (human (endogenous in human articular chondrocytes)) (UniProt P39687)
Test: co-IP

Row | Substance | binding
1 | AXIN1 (from UniProt O15169 1-862) | binds
2 | β-catenin (from UniProt P35222 1-781) | binds
